Reference: patent US20160158317A1, “Antimicrobial Peptide Variants and Polynucleotides Encoding Same” (Adenium Biotech A/S, priority 2010, published 2016)
Several values for one entry are separate records, joined by “and”; a condition that tells them apart may be missing. Identical values can stand only once. Not every detail of the peptide structures is certain; ends, links or a residue may be inferred. Marks after values point to notes of the source that are not given here. Where a SMILES comes first, the peptide text is derived from it. Bridges are numbered along the chain shown (N, C = ends).

Tested on: E. coli AID#172
Assay: Neutropenic murine peritonitis/sepsis model, dose-response and estimation of ED50 (Example 2)
Type: in vivo, Escherichia coli
Details: for log10 CFU mean Blood / log10 CFU Blood / log10 CFU mean PF / log10 CFU PF: T = 5; for log10 CFU mean Blood / log10 CFU mean PF: group mean; for log10 CFU Blood / log10 CFU PF: individual mice, not detectable presented as 1.0; for log10 CFU mean PF / log10 CFU PF: peritoneal fluid
Method: The purpose of this study was to investigate the dose-response relationship following intravenous (i.v.) administration of a single dose of NZ17074 ranging from 0.16-12 mg/kg. The effect was tested against E. coli AID#172 in the neutropenic peritonitis model. Treatment with 40 mg/kg meropenem was included as a positive control group. The colony counts in blood and peritoneal fluid were determined at 5 hours after treatment.
The murine peritonitis/sepsis model is a well-recognized model for studies of antimicrobial activity as described by N. Frimodt-Møller and J. D. Knudsen in Handbook of Animal Models of Infection (1999), ed. by O. Zak & M. A. Sande, Academic Press, San Diego, US.
• 30 outbred, NMRI female mice, 25-30 grams (Harlan Scandinavia) • E. coli AID#172 from Statens Serum Institute, Copenhagen, Denmark. Clinical isolate from a human wound from 2003. Multiresistant (Ampicillin, Ceftazidime, Aztreonam, Gentamicin, Ciprofloxacin) • NZ17074 in Ringer Acetate, pH 6: 1.2 mg/ml, 6.0 ml. The solution was stored at 4° C. until use. Analyses of the dose formulations used were performed after completion of the in-life phase of the study and gave the following results:
The mice were rendered neutropenic by injecting 0.5 ml cyclophosphamide solution intraperitoneally 4 days (200 mg/kg) and 1 day (100 mg/kg) prior to inoculation.
Fresh overnight E. coli AID#172 colonies from a 5% Horse Blood Agar plate were suspended and diluted in sterile saline to approximately 2×10^6 CFU/ml. One hour before start of treatment (time −1 hr) mice were inoculated intraperitoneally with 0.5 ml of the E. coli suspension in the lateral lower quadrant of the abdomen. Approximately ½-1 hour after treatment, mice were treated orally with 45 microliters neurophen (20 mg ibuprofen/ml corresponding to 30 mg/kg) as a pain relief.
The mice were treated i.v. in the lateral tail vein over approximately 30 seconds with 10 ml/kg with a single dose of NZ17074, meropenem or vehicle at time 0 hour (see Table 1). The dosing was based on a mean weight of 30 g. Mice that weighed 28-32 g received 0.30 ml solution. Mice that weighed 27-28 g received 0.25 ml solution and mice that weighed 32.1-36 g received 0.35 ml solution.
The mice were observed during the study and scored 0-5 based on their behaviour and clinical signs. • Score 0: Healthy. • Score 1: Minor clinical signs of infection and inflammation e.g. observations of minor signs of distress or changed activity. • Score 2: Clear signs of infection like, social withdrawal, lack of curiosity, changed body position, piloerection, or changes in pattern of movement. • Score 3: Severe signs of infection like stiff movements, lack of curiosity, changed body position, piloerection, pain, or changes in pattern of movement. • Score 4: Severe pain and the mouse was sacrificed immediately to minimize the suffering of the animal. • Score 5: The mouse was dead.
Colony counts were determined from blood and peritoneal fluid at 0 and 5 hours. The mice were anaesthetized with CO2+O2 and blood was collected from axillary cutdown in 1.5 ml EDTA coated eppendorf tubes. The mice were sacrificed immediately after blood sampling and a total of 2 ml sterile saline was injected i.p. and the abdomen gently massaged before it was opened and fluid sampled with a pipette. Each sample was then 10 fold diluted in saline and 20-microliter spots were applied on blue agar plates. All agar plates were incubated 18-22 hours at 35° C. in ambient air.
The colony counts were performed at the start of treatment and 5 hours after treatment. The CFU numbers are log10 transformed before performing calculations.

[1] = NZ17074 0.16 mg/kg single dose, 0.16 mg/kg
[2] = NZ17074 0.30 mg/kg single dose, 0.3 mg/kg
[3] = NZ17074 0.75 mg/kg single dose, 0.75 mg/kg
[4] = NZ17074 1.5 mg/kg single dose, 1.5 mg/kg
[5] = NZ17074 3.0 mg/kg single dose, 3 mg/kg
[6] = NZ17074 6.0 mg/kg single dose, p < 0.001 vs vehicle
[7] = NZ17074 12 mg/kg single dose, p < 0.001 vs vehicle
[8] = Table 2, bottom plateau of dose-response
[9] = Table 2, top plateau of dose-response
[10] = neutropenic NMRI mice, single i.v. dose 0.16-12 mg/kg, 5 hours after treatment, sigmoidal dose-response, listed as NZ17074

CC(C)[C@@H]1NC(=O)CNC(=O)[C@H](CC(N)=O)NC(=O)[C@H](CCCNC(=N)N)NC(=O)[C@H](Cc2ccc(O)cc2)NC(=O)[C@H](C(C)C)NC(=O)[C@@H]2CSSC[C@H](NC(=O)[C@H](C(C)C)NC(=O)[C@H](CCCNC(=N)N)NC1=O)C(=O)N[C@@H](Cc1c[nH]cn1)C(=O)N[C@@H](CCCNC(=N)N)C(=O)N[C@@H](CCCNC(=N)N)C(=O)N[C@H](C(=O)N[C@@H](CC(N)=O)C(=O)O)CSSC[C@H](NC(=O)[C@H](Cc1ccccc1)NC(=O)CN)C(=O)N[C@@H](Cc1c[nH]c3ccccc13)C(=O)N[C@@H](CC(N)=O)C(=O)N[C@@H](C(C)C)C(=O)N2 [SEQ ID NO: 70] (H-GFCWNVCVYRNGVRVCHRRCN-OH; disulfide 3-20, 7-16 (inferred); N-terminus and C-terminus assumed)
CFU levels in blood and peritoneal fluid compared to vehicle (0.16-3.0 mg/kg i.v., 5 hours): Slightly lower CFU levels
CFU levels in peritoneal fluid and blood compared to vehicle (6 and 12 mg/kg i.v., 5 hours, p<0.001): significantly lower
log10 CFU mean Blood (NZ17074 0.16 mg/kg single dose): 4.54 log10 CFU/ml
log10 CFU Blood [1]: 4.27 log10 CFU/ml and 4.19 log10 CFU/ml and 5.16 log10 CFU/ml
log10 CFU mean PF (NZ17074 0.16 mg/kg single dose): 5.31 log10 CFU/ml
log10 CFU PF [1]: 5.16 log10 CFU/ml and 4.78 log10 CFU/ml and 5.98 log10 CFU/ml
log10 CFU mean Blood (NZ17074 0.30 mg/kg single dose): 2.88 log10 CFU/ml
log10 CFU Blood [2]: 1.40 log10 CFU/ml and 4.63 log10 CFU/ml and 2.60 log10 CFU/ml
log10 CFU mean PF (NZ17074 0.30 mg/kg single dose): 4.26 log10 CFU/ml
log10 CFU PF [2]: 2.76 log10 CFU/ml and 5.74 log10 CFU/ml and 4.27 log10 CFU/ml
log10 CFU mean Blood (NZ17074 0.75 mg/kg single dose): 4.46 log10 CFU/ml
log10 CFU Blood [3]: 5.07 log10 CFU/ml and 4.30 log10 CFU/ml and 4.00 log10 CFU/ml
log10 CFU mean PF (NZ17074 0.75 mg/kg single dose): 5.16 log10 CFU/ml
log10 CFU PF [3]: 5.74 log10 CFU/ml and 4.95 log10 CFU/ml and 4.78 log10 CFU/ml
log10 CFU mean Blood (NZ17074 1.5 mg/kg single dose): 3.99 log10 CFU/ml
log10 CFU Blood [4]: 3.51 log10 CFU/ml and 3.92 log10 CFU/ml and 4.54 log10 CFU/ml
log10 CFU mean PF (NZ17074 1.5 mg/kg single dose): 4.41 log10 CFU/ml
log10 CFU PF [4]: 3.33 log10 CFU/ml and 4.72 log10 CFU/ml and 5.18 log10 CFU/ml
log10 CFU mean Blood (NZ17074 3.0 mg/kg single dose): 2.81 log10 CFU/ml
log10 CFU Blood [5]: 3.86 log10 CFU/ml and 3.57 log10 CFU/ml and 1.00 log10 CFU/ml
log10 CFU mean PF (NZ17074 3.0 mg/kg single dose): 3.91 log10 CFU/ml
log10 CFU PF [5]: 4.74 log10 CFU/ml (2×) and 2.24 log10 CFU/ml
log10 CFU mean Blood [6]: 1.00*** log10 CFU/ml
log10 CFU Blood (NZ17074 6.0 mg/kg single dose): 1.00 log10 CFU/ml
log10 CFU mean PF [6]: 2.12*** log10 CFU/ml
log10 CFU PF (NZ17074 6.0 mg/kg single dose, 6 mg/kg): 2.18 log10 CFU/ml (2×) and 2.00 log10 CFU/ml
log10 CFU mean Blood [7]: 1.00*** log10 CFU/ml
log10 CFU Blood (NZ17074 12 mg/kg single dose): 1.00 log10 CFU/ml
log10 CFU mean PF [7]: 1.36*** log10 CFU/ml
log10 CFU PF (NZ17074 12 mg/kg single dose, 12 mg/kg): 1.00 log10 CFU/ml and 1.69 log10 CFU/ml and 1.40 log10 CFU/ml
Emax, Blood (Table 2, GraphPad Prism): 3.153 CFU/ml
Emax, Peritoneal fluid (Table 2, GraphPad Prism): 4.811 CFU/ml
BOTTOM, Blood [8]: −4.138 CFU/ml
BOTTOM, Peritoneal fluid [8]: −4.486 CFU/ml
TOP, Blood [9]: −0.985 CFU/ml
TOP, Peritoneal fluid [9]: 0.325 CFU/ml
ED50, blood [10]: 3.17 ± 0.53 mg/kg and 3.168 mg/kg
ED50, peritoneal fluid [10]: 3.09 ± 2.07 mg/kg and 3.086 mg/kg
Emax (Top plateau minus Bottom plateau), blood (single i.v. dose, 5 hours): 3.15 log10 CFU
Emax (Top plateau minus Bottom plateau), peritoneal fluid (single i.v. dose, 5 hours): 4.72 log10 CFU
